Source: PubChem BioAssay AID1508597 (Cure First, 2020)
This is a random part of the about 2,100 reagents, in one setting of the screen. 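Calls flag viability under 80% in either arm, not effects specific to rucaparib; the reference for percent is not stated.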 A number with no mark means an inactive call. A reagent listed more than once was tested more than once; the source does not tell the runs apart. Not given: the 100% reference.

- Test: 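Survival screen with siRNA in ovarian cancer cells derived from patients, with or without rucaparib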 (primary screen)
- Cell system: human ovarian carcinoma lines grown from tumours: OCI-P5x (papillary serous) and OCI-C5x (clear cell)
- Knock-down reagent: siRNA pool against human genes, 1.25 pmol siRNA per well
- Timing: 72 h or 96 h, depending on the cell culture
- Challenge: rucaparib 20 µM (about IC30) or vehicle, present until read-out
- Rucaparib or vehicle: Vehicle
- Cell line: OCI-C5x (clear cell)
- Measurement: 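Luminescent ATP-based viability assay read 72 or 96 h after transfection, depending on culture, given as normalised percent viability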
- Direction: viability, normalised: higher = more viable cells remaining
- Active means: 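Active when normalised viability falls below 80 percent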
- Calls: active = viability under 80%; inactive = viability 80% or more

| gene | technical replicate | viability, normalised (%) |
| --- | --- | --- |
| GMEB1 | 1 | 43.2 (active) |
| GMEB1 | 2 | 51 (active) |
| GMEB1 | 3 | 38.9 (active) |
| SSBP1 | 1 | 88.7 |
| SSBP1 | 2 | 88 |
| SSBP1 | 3 | 83.9 |
| G6PC1 | 1 | 51.8 (active) |
| G6PC1 | 2 | 42 (active) |
| G6PC1 | 3 | 54.1 (active) |
| PYGO1 | 1 | 49.3 (active) |
| PYGO1 | 2 | 36.5 (active) |
| PYGO1 | 3 | 36.2 (active) |
| PDE6H | 1 | 65.9 (active) |
| PDE6H | 2 | 62.4 (active) |
| PDE6H | 3 | 70.8 (active) |
| KLF1 | 1 | 42.2 (active) |
| KLF1 | 2 | 74.2 (active) |
| KLF1 | 3 | 62.9 (active) |
| GON4L | 1 | 34.7 (active) |
| GON4L | 2 | 38.6 (active) |
| GON4L | 3 | 44.9 (active) |
| PARP11 | 1 | 36.8 (active) |
| PARP11 | 2 | 41.3 (active) |
| PARP11 | 3 | 39 (active) |
| CCK | 1 | 39.2 (active) |
| CCK | 2 | 57.3 (active) |
| CCK | 3 | 40.6 (active) |
| TBXT | 1 | 44 (active) |
| TBXT | 2 | 43.1 (active) |
| TBXT | 3 | 33.4 (active) |
| SBDS | 1 | 40.4 (active) |
| SBDS | 2 | 38.7 (active) |
| SBDS | 3 | 47 (active) |
| TLR8 | 1 | 54 (active) |
| TLR8 | 2 | 53.4 (active) |
| TLR8 | 3 | 47.8 (active) |
| RPL11 | 1 | 29.6 (active) |
| RPL11 | 2 | 35.5 (active) |
| RPL11 | 3 | 34.6 (active) |
| IPO8 | 1 | 51 (active) |
| IPO8 | 2 | 72.3 (active) |
| IPO8 | 3 | 64 (active) |
| PANK3 | 1 | 38 (active) |
| PANK3 | 2 | 52.8 (active) |
| PANK3 | 3 | 26.3 (active) |
| DSTYK | 1 | 62 (active) |
| DSTYK | 2 | 57 (active) |
| DSTYK | 3 | 54.9 (active) |
| PCDHB9 | 1 | 53.2 (active) |
| PCDHB9 | 2 | 54.5 (active) |
| PCDHB9 | 3 | 57.2 (active) |
| PML | 1 | 43.2 (active) |
| PML | 1 | 57.4 (active) |
| PML | 2 | 29.8 (active) |
| PML | 2 | 44.7 (active) |
| PML | 3 | 52.2 (active) |
| PML | 3 | 36.6 (active) |

Reformatted: 4 of the entries above.
gene	technical replicate	viability, normalised (%)
PANK3	2	52.8 (active)
PANK3	3	26.3 (active)
DSTYK	1	62 (active)
DSTYK	2	57 (active)
